Each structure is given as a SMILES string. Only a part is listed here, and it is no random draw. Calls are pooled over several reports, among them a noisy single-well screen. The list shows a part of the results.

The results in this text go back to the M2OR odorant receptor database.

Conditions in all cases: stereoisomer not certain
For one experiment, the system named is T1, OR4F4.
T1 sequence (whole entry): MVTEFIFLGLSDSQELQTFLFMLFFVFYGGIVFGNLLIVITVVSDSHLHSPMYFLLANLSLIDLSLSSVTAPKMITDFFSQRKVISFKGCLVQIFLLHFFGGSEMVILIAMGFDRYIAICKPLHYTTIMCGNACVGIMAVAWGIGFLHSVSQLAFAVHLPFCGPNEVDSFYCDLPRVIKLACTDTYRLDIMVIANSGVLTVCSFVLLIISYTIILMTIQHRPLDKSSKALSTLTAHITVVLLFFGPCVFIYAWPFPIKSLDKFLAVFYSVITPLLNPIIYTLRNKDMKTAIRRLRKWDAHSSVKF
A digest of the protocol:
(§1)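 Whether a receptor–molecule pair is responsive (active) rests on the original authors' judgment that its measured signal was statistically different from baseline. Pairs without that judgment are non-responsive (inactive). Sources used varied assay methods, commonly transient luciferase assays in mammalian cell lines.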

The next experiment addresses T2, OR4F6 (Homo sapiens) (UniProt Q8NGB9).
T2 sequence (whole entry): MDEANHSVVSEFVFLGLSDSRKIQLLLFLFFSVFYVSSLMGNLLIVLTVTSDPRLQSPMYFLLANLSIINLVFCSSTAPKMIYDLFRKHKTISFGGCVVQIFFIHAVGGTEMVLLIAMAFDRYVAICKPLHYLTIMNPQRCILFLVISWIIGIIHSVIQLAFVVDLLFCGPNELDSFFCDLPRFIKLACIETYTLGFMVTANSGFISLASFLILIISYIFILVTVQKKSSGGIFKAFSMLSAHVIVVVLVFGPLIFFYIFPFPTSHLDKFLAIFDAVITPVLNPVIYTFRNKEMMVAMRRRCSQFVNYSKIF
The method, boiled down: as §1

The next experiment concerns the target T3, OR4K13 (Homo sapiens) (UniProt Q8NH42).
T3 sequence (whole entry): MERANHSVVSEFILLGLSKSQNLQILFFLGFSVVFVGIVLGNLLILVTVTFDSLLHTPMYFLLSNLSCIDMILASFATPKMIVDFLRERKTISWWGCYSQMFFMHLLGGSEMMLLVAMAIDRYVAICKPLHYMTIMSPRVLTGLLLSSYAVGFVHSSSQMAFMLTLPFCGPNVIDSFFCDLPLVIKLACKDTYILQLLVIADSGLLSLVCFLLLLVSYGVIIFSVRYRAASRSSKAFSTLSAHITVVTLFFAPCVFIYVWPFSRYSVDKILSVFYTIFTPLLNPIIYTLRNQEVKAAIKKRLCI
The method, boiled down:
as §1

The target of another experiment is T4, OR4K14 (Homo sapiens) (UniProt Q8NGD5).
T4 sequence (whole entry): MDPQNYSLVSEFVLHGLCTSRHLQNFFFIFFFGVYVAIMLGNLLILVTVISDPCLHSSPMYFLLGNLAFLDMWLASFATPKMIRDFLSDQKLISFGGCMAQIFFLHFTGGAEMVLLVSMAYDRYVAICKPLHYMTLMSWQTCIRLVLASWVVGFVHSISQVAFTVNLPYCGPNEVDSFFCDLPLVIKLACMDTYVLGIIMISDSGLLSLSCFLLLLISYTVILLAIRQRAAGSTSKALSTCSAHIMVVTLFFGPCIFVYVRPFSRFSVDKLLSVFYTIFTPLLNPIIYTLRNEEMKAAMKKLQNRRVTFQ
A digest of the protocol:
as §1

The subject of the next experiment is T5, OR4K1.
T5 sequence (whole entry): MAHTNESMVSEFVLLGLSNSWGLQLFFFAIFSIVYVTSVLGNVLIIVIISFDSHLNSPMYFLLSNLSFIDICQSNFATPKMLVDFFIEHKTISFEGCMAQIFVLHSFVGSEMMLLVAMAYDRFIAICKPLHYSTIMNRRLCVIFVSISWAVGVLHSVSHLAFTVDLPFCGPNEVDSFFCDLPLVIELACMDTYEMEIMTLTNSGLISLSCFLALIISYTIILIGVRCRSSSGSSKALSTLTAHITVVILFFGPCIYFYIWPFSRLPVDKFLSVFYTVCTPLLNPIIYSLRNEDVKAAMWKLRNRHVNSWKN
A digest of the protocol: as §1

The next experiment concerns the target T6, OR4K2 (Homo sapiens) (UniProt Q8NGD2).
T6 sequence (whole entry): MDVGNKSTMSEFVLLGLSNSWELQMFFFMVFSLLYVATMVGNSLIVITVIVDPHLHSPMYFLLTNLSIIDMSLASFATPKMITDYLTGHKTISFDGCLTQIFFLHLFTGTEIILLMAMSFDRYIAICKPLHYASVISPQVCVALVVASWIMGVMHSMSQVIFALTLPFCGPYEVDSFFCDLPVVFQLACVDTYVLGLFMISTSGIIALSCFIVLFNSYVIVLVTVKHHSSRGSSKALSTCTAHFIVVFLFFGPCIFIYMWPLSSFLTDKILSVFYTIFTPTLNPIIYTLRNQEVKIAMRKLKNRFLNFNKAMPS
A digest of the protocol: as §1

A further experiment concerns T7, OR4K3.
T7 sequence (whole entry): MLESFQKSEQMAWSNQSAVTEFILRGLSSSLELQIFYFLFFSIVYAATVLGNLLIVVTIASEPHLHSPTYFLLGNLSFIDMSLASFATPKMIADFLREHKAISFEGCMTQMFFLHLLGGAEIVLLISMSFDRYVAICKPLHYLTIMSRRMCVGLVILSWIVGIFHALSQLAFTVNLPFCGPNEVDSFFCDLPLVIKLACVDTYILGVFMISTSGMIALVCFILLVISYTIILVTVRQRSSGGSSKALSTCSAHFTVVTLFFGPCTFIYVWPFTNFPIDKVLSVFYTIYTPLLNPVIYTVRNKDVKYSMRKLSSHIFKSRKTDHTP
The method, boiled down: as §1

Another experiment addresses T8, OR4K5 (Homo sapiens) (UniProt Q8NGD3).
T8 sequence (whole entry): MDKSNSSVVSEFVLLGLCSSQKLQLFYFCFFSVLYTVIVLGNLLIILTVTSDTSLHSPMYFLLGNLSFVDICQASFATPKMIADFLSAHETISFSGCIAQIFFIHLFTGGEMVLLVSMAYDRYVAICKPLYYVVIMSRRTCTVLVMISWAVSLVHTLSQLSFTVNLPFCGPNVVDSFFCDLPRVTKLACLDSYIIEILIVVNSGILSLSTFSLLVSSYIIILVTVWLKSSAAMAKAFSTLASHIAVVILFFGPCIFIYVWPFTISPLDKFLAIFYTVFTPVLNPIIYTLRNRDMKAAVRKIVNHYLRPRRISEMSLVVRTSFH
A digest of the protocol: as §1

A further experiment concerns T9, OR4KF.
T9 sequence (whole entry): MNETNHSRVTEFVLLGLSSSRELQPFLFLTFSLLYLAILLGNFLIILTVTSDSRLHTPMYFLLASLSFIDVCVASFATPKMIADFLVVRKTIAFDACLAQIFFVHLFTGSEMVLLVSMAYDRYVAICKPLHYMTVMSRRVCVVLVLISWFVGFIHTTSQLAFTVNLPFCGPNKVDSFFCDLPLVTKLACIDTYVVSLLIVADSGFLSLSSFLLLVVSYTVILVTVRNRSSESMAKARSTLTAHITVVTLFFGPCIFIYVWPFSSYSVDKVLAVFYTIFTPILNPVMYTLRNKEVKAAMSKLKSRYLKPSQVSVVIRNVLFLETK
A digest of the protocol: as §1

For a further experiment, the system named is T10, OR4KH.
T10 sequence (whole entry): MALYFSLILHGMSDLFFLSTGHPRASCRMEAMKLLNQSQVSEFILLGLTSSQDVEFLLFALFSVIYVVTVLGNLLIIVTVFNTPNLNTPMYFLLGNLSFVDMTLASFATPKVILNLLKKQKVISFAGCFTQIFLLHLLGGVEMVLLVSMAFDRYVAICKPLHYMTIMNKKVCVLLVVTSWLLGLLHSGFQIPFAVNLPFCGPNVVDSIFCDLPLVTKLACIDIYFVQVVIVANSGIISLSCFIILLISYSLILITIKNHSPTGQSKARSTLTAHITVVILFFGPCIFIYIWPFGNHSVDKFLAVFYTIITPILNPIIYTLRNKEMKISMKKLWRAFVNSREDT
The method, boiled down:
as §1
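Also: active if original authors judged signal statistically different from baseline.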

Consider `CCC(C)=O`, for which, in the experiment with OR4F4, the “odorant receptor agonist call” value is “active”. Further, the “odorant receptor agonist call” value in the experiment with OR4F6 (Homo sapiens), with OR4K13 (Homo sapiens), with OR4K14 (Homo sapiens), in the experiment on OR4K1, in the experiment with OR4K2 (Homo sapiens) and in the experiment with OR4K3 was “inactive” in each case. Also, the “odorant receptor agonist call” value in the experiment with OR4K5 (Homo sapiens), in the experiment on OR4KF and in the experiment on OR4KH was “inactive” throughout.
